Test results taken from publication PMC9793359.
Results are given in words; binding and its absence hold for the method and conditions named. Binding seen in cells or lysates may run through a third protein.

Assays:
Experiment in all cases: co-IP
[1] = biological target: Flag-tagged nsp12 of SARS-CoV-2 (SARS-CoV-2) (UniProt P0DTD1)
[2] = biological target: Flag-tagged nsp7 of SARS-CoV-2 (SARS-CoV-2) (UniProt P0DTD1)
[3] = biological target: Flag-tagged nsp8 of SARS-CoV-2 (SARS-CoV-2) (UniProt P0DTD1)

Measured: binding

CDK5, endogenous (from UniProt Q00535 1-292) (enzyme)
no binding: all assays above
